Patent US20230174947A1, “METHODS AND COMPOSITIONS FOR IMPROVING ENDOTHELIAL CELL BARRIER” (United Therapeutics Corporation, priority 2021, published 2023)
At least one structure is not confirmed: it was looked up by name or label, or the drawing left a doubt.

Experiments:
[1] = tested on: Human Pulmonary Artery Endothelial Cells (HPAECs); assay: Electric cell-substrate impedance sensing (ECIS, xCELLigence) of confluent HPAECs; type: cell-based; conditions: HPAECs from ATCC; MCDB131 Complete; forskolin at 40 μM compared with 60 μM and untreated; 15, 48, 100 hours
[2] = tested on: Human Microvascular Endothelial Cells (HMVEC); assay: Electric cell-substrate impedance sensing (ECIS) of confluent HMVECs; type: cell-based; conditions: MCDB131 Complete, forskolin at 40 μM compared with 10 μM and untreated, 15, 48, 100 hours
[3] = tested on: HPAECs; assay: HPAEC proliferation, cell counts by Hoechst-stained nuclei (Celigo); type: cell-based, Human; conditions: Forskolin 40 μM, MCDB131; for endothelial cell proliferation (summary statement of Example 6): FTY720-P 50 nM, Methylprednisolone 1 μM
Protocol: HPAECs were seeded at low initial confluency (3000-5000 cells/cm^2) to study their growth on Collagen type-I coated culture dishes. Barrier agonists were added at 0 hours (FIG. 10A) or at 48 hours (FIG. 10B) and were maintained through the remainder of culture. Barrier agonist compounds, when added to the culture medium (MCDB131), were added at the following concentrations: Forskolin (40 μM), FTY720-P (50 nM), Methylprednisolone (1 μM). Cell counts were measured through individual quantification of nuclei, stained with Hoechst dye and imaged on the Celigo Imaging Cytometer (Nexcelom Bioscience).

[4] = tested on: HPAEC from ATCC; conditions: MCDB131, Methylprednisolone 1 μM, 24, 48 and 120 hours after treatment

C=C[C@@]1(C)CC(=O)[C@]2(O)[C@@]3(C)[C@@H](O)CCC(C)(C)[C@@H]3[C@H](O)[C@H](OC(C)=O)[C@@]2(C)O1 [forskolin] was tested, and the “enhancement of vascular barrier strength (ECIS impedance)” value (“enhancement” for short) [1] was “greater enhancement of vascular barrier strength than 60 μM forskolin or untreated control”, the “enhancement” value ([2]; HMVEC from Cell Applications) was “greater enhancement of vascular barrier strength then 10 μM forskolin or untreated control” and the “enhancement” value ([2]; HMVEC from PromoCell) was “greater enhancement of vascular barrier strength than 10 μM forskolin or untreated control”. For the same compound, the “endothelial cell proliferation (summary statement of Example 6)” value [3] was “reduction in endothelial cell proliferation” and the “endothelial cell proliferation (cell number over time)” value ([3]; barrier agonists added at 0 hours post-seeding) was “significantly lower endothelial cell proliferation than cells that were treated with FTY720-P or that received no treatment”.
C[C@H]1C[C@@H]2[C@H]([C@@H](O)C[C@@]3(C)[C@H]2CC[C@]3(O)C(=O)CO)[C@@]2(C)C=CC(=O)C=C12 [methylprednisolone] was tested, and the “endothelial cell proliferation (summary statement of Example 6)” value [3] was “no reduction in endothelial proliferation”, the “TEER relative to treatment with Forskolin and FTY720-P” value ([4]; Forskolin 40 μM, FTY720-P 50 nM) was “did not increase TEER to a magnitude greater than that observed following treatment with Forskolin and FTY720-P” and the “TEER relative to cells cultured without any barrier agonist compound” value [4] was “significant increase in TEER”.
